Experimental data: patent US11246893B2, “Bacteriocin production, compositions and methods of use” (ISOThrive Inc., priority 2016, dated 2022)
Some results were stated once for a whole list of compounds, not compound by compound.

Tested on: Weissella viridescens NRRL B-1951
Assay: tube assay, W. viridescens growth with nisin A or Z (absorbance)
Type: cell-based
Settings: concentration between 0.30 and 1.00 μg/g (0.46-1.54 nanomoles)
Protocol: 100 g De-Man, Rogosa and Sharpe (MRS) media was prepared in a 500 mL Erlenmeyer to contain 5.5% solids in deionized water (18.2 MΩ, Hydro Service and Supplies. Gaithersburg, Md.). The media was autoclaved (121° C. 15 min), cooled, and inoculated with 1 mL (0.5 mL culture+0.5 mL glycerol, 40%; frozen at −78° C.) of Weissella viridescens NRRL B-1951 (test strain). The culture was incubated at 31° C. overnight (15 Hr).
The next day, stock solutions of either nisin A or Z were prepared in deionized water to contain 31.3 and 33.7 μg/g of each peptide.
100 g MRS media was prepared to contain 5.5% solids. Two sets (one set each for nisin A and nisin Z) of eight Hach-type tubes (Kimble Chase 45066-16100) were prepared. […]
To each tube was added, of the appropriate nisin stock, 0.00, 0.05, 0.10, 0.25, 0.50, 1.00, 1.50, and 2.00 g. […] The tubes were sealed and the absorbance at 600 nm was quickly measured (Hach DR900). […]
Each tube was thoroughly mixed to suspend settled cells and the absorbance was measured again at 600 nm. The final absorbance values for each sample were corrected for their respective background (taken just after inoculation, scattered light from added cells). […]
As indicated above, the absorbance of the culture was measured again at 600 nm as a measure of W. viridescens growth, and the absorbance values for each sample were corrected for their respective background. […]

MSTKDFNLDLVSVSKKDSGASPRITSISLCTPGCKTGALMGCNMKTATCNCSIHVSN [nisin Z]
maximum growth within the plateau: 60-70%

MSTKDFNLDLVSVSKKDSGASPRITSISLCTPGCKTGALMGCNMKTATCHCSIHVSK [nisin A]
maximum growth within the plateau: 60-70%
